The source of these data is article PMC4424493.

In the experiment the target is T1, GST-galectin-8 (rat) (UniProt Q62665).
T1 sequence: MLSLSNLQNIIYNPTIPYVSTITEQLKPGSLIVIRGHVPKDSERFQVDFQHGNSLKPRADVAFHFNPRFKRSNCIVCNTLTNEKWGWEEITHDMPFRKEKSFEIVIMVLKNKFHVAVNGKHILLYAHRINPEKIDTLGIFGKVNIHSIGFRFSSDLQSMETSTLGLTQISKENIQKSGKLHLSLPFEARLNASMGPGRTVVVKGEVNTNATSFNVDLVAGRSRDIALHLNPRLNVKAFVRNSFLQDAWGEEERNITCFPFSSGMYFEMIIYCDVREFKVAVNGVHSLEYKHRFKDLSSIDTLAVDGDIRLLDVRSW
Kind of experiment: pull-down; GST-gal-8-loaded beads; proteins of newborn mouse calvaria incubated 16 hr at 4°C; washed in PBS+1% Triton X-100; eluted with 0.5M lactose; SDS-PAGE and Western blotting; GST-loaded beads as control; only the target purified. Background: A western blot detects proteins with antibodies after separation by electrophoresis.

These are yes or no findings as the source states them, for the method shown. Binding seen in cells or lysates may run through a third protein. Some results given as binding are weak or reduced against the parent protein; the word gives no strength. Sequences can lack the tags named with a protein.

B1: urokinase plasminogen activator receptor (uPAR), from calvaria of newborn mice (receptor, UniProt P35456 24-298)
chain: LQCMQCESNQSCLVEECALGQDLCRTTVLREWQDDRELEVVTRGCAHSEKTNRTMSYRMGSMIISLTETVCATNLCNRPRPGARGRAFPQGRYLECASCTSLDQSCERGREQSLQCRYPTEHCIEVVTLQSTERSLKDEDYTRGCGSLPGCPGTAGFHSNQTFHFLKCCNYTHCNGGPVLDLQSFPPNGFQCYSCEGNNTLGCSSEEASLINCRGPMNQCLVATGLDVLGNRSYTVRGCATASWCQGSHVADSFPTHLNVSVSCCHGSGCNSPTG
As for B1, the binding entry is reported as “binds”.
